From patent US20080153840A1, “REDUCTION OF CARDIOVASCULAR SYMPTOMS” (priority 2006, published 2008)
Where a name gives a salt, the structure may show the parent alone.

Sequences of proteins named here, by UniProt entry; tags and fusion partners are left off. A change or cut given only in a name is not applied to a line headed by its entry.
UniProt Q12809: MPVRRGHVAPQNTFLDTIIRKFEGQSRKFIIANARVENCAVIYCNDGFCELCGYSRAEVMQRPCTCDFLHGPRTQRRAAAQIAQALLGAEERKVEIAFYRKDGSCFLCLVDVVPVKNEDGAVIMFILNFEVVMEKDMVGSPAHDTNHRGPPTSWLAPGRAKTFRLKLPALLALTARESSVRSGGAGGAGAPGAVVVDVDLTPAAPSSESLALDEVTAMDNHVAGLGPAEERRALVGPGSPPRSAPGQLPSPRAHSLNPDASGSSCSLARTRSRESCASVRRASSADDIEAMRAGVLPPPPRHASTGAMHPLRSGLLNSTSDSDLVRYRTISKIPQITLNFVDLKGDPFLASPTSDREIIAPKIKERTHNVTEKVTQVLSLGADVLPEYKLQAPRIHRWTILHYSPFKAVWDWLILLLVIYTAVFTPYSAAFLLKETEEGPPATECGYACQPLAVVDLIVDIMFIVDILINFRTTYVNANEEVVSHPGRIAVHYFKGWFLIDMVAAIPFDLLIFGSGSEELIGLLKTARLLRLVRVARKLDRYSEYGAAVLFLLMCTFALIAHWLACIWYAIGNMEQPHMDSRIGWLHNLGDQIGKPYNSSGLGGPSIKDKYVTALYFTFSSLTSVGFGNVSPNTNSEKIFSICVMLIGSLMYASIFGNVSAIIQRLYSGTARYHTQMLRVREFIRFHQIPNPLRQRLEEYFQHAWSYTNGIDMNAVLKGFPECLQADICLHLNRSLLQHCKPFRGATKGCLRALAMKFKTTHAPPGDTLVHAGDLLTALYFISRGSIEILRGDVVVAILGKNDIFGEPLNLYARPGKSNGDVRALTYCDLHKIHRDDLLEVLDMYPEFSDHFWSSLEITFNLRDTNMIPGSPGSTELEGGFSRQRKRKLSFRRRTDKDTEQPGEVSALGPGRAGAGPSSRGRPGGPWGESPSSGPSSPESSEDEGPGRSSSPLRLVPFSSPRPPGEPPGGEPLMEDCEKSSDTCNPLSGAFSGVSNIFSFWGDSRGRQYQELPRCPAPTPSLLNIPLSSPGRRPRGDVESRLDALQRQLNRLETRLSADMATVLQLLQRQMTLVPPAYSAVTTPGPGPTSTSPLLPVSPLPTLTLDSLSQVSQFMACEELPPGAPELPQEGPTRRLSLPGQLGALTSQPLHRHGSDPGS

Experiments:
[1] = biological target: HERG channels expressed in HEK293 cells (Homo sapiens, UniProt Q12809)
Description: Human-ether-a-go-go related gene (HERG) encodes the cardiac rapidly activating delayed rectifier K^+ current (IKr). Inhibition of HERG K^+ current (IHERG) is a mechanism for drug-induced long QT syndrome.

Row | SMILES | hearts with spontaneous or 3-sec pause triggered polymorphic ventricular tachycardias (TdP) (female rabbit hearts) | percentage of hearts with spontaneous or pause triggered TdP (female rabbit hearts) | effect on E-4031 block of IHERG [1]
1 | Cc1cccc(CCN2CCC(C(=O)c3ccc(NS(C)(=O)=O)cc3)CC2)n1 [E-4031, N-(4-[(1-[2-(6-methyl-2-pyridyl)ethyl]-4-piperidylcarbonyl]phenyl)methanesulfonamidedihydrochloride dehydrate] | 19 of 21 | 90% | 
2 | COc1ccccc1OCC(O)CN1CCN(CC(=O)Nc2c(C)cccc2C)CC1 (stereo not drawn) [ranolazine, N-(2,6-dimethylphenyl)-4-[2-hydroxy-3-(2-methoxyphenoxy)propyl]-1-piperazineacetamide] |  |  | antagonized
